From PubChem BioAssay (EPA / NIEHS)
For some assays here: This list holds what a sample rich in hits left over. Inconclusive results are not listed. Only a part is listed here, and it is no random draw. Calls of active or inactive are those of the source. The calls were made as follows, unless noted: active = hit-call score of the fitted dose curve at least 0.9, where 1 is the maximum; inactive = score below 0.9.

Protein sequences, listed by entry. Tags and fused reporters are not part of them. Lines headed by an entry give the natural chain unless they say otherwise; changes in a name come on top.
UniProt P34969, whole entry, looked up: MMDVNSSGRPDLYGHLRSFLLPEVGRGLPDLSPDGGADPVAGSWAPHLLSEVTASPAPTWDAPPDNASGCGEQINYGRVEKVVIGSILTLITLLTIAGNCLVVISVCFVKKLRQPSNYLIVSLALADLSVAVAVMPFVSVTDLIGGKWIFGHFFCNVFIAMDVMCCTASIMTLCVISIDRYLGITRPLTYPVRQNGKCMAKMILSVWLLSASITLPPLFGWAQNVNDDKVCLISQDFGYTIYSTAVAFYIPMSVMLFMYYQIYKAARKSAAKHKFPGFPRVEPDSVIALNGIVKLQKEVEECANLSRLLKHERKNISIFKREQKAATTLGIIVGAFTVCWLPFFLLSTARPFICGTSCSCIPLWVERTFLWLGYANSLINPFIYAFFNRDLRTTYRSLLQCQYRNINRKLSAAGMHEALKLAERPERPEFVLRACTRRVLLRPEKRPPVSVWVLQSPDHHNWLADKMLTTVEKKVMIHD
UniProt P08684, whole entry, looked up: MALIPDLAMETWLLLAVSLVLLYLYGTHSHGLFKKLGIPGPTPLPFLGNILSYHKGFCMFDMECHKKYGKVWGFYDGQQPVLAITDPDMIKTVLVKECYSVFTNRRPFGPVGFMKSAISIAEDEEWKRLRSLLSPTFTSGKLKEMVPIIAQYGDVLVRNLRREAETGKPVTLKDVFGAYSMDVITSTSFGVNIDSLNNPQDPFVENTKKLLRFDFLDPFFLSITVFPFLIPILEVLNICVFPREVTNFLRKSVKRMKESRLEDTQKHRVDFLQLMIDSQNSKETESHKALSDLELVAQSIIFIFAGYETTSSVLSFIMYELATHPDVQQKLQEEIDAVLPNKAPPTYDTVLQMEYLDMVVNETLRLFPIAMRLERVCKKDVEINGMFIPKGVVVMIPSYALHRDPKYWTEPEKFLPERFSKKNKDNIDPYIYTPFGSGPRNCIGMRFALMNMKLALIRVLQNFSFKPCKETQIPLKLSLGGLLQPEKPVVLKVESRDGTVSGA
UniProt P10275: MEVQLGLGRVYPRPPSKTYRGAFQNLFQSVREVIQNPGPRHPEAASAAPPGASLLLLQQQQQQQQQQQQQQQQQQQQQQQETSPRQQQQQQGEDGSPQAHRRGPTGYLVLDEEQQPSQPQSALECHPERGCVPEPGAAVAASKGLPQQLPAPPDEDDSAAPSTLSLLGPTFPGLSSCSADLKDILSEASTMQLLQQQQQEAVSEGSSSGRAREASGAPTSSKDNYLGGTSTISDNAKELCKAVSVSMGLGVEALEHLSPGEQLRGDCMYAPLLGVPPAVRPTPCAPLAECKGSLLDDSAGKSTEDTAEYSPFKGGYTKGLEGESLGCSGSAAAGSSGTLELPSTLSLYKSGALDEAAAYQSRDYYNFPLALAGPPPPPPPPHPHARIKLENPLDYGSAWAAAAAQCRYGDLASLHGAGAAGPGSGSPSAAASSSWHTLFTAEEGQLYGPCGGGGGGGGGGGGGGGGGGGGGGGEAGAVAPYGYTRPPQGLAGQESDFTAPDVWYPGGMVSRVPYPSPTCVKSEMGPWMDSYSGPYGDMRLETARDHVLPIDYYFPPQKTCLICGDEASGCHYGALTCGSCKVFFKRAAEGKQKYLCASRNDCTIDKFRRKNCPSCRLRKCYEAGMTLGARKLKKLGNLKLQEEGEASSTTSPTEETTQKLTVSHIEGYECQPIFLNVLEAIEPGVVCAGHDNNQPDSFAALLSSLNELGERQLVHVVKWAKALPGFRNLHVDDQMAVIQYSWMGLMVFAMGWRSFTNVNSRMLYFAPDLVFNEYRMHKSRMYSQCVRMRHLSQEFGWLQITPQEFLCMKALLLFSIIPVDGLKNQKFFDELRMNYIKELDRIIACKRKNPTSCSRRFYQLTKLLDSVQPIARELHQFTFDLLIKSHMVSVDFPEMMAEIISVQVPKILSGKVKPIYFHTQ
UniProt P16581: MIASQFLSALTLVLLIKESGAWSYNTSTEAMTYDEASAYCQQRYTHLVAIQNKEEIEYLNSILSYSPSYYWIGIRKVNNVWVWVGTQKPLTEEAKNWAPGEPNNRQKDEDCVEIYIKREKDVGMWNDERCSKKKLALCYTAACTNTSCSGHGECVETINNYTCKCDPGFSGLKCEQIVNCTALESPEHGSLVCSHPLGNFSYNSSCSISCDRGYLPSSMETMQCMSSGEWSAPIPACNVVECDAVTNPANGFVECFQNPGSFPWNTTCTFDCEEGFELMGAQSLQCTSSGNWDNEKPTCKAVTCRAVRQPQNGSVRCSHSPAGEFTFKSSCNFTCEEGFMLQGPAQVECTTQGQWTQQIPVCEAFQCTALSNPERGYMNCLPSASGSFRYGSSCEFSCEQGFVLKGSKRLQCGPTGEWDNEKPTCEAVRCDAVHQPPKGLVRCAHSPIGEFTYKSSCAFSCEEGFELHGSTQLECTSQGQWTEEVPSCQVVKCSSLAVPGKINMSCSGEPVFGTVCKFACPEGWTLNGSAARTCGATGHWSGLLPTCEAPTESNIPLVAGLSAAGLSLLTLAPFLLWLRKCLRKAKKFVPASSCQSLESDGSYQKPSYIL
UniProt Q92731, whole entry, looked up: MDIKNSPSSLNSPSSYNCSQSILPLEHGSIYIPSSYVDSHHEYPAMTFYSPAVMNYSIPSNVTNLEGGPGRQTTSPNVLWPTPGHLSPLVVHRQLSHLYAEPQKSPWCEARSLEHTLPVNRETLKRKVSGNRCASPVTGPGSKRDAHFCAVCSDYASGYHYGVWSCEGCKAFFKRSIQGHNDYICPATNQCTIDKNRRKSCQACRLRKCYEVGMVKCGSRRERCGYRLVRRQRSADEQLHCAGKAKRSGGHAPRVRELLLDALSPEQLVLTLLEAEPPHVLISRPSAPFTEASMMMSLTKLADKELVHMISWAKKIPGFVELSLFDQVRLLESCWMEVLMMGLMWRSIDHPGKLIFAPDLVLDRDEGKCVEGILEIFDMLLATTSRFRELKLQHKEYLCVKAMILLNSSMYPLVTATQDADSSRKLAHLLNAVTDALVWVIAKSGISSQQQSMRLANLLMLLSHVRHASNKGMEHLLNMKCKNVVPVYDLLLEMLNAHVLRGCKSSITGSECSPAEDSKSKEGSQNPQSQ

Tests used:
[1] = read-out: CD40, CD40 (gene 958); assay: BSK_SAg_CD40: BioMAP Diversity Plus: SAg Assay for CD40 Biomarker Activity (AID 2283088); settings: actives raise or lower the signal; primary human HUVEC with PBMC
Outline: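 HUVEC/PBMC co-culture, 24 h post-dose; CD40 by ELISA, fluorescence intensity; bidirectional fit vs DMSO negative control.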

[2] = target: human Serotonin, 5-Hydroxytryptamine Receptor 7 (5HT7), HTR7 (gene 3363) (UniProt P34969); assay: NVS_GPCR_h5HT7: NovaScreen (NVS) G Protein-Coupled Receptor Assay for human Serotonin, 5-Hydroxytryptamine Receptor 7 (5HT7) (AID 2283255; active = hit-call score of the fitted dose curve at least 0.9, where 1 is the maximum;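 also: hits reduce specific radioligand binding relative to DMSO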)
Outline: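 Filter-bound radioactivity counted after 1 h, with loss of specific radioligand binding fitted against DMSO. Membrane protein came from CHO cells expressing human 5HT7. Chemicals were tested first at 25 uM in duplicate, then in concentration series if active.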

[3] = read-out: Interleukin 6 Receptor (IL6R), IL6R (gene 3570); assay: LTEA_HepaRG_IL6R: Life Technologies and Expression Analysis (LTEA) Assay for Interleukin 6 Receptor (IL6R) using HepaRG (AID 2283510); settings: actives raise or lower the signal; mRNA level, 48 h
Outline: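 HepaRG, 48 h exposure, 8-pt half-log series, top 100 uM, 0.5% DMSO vehicle, duplicates. Read-out: TaqMan qRT-PCR of IL6R transcript, housekeeping-gene normalized. Gain or loss fitted relative to DMSO baseline.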

[4] = read-out: Interleukin-8 (IL8), CXCL8 (gene 3576); assay: BSK_SAg_IL8: BioMAP Diversity Plus: SAg Assay for Interleukin-8 (IL8) Biomarker Activity (AID 2283094); settings: actives raise or lower the signal; primary human HUVEC with PBMC
Outline: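 HUVEC/PBMC co-culture, 24 h post-dose; IL-8 by ELISA. Gain or loss of signal fitted bidirectionally vs DMSO baseline.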

[5] = read-out: Glutathione S-transferase M3 (GSTM3), GSTM3 (gene 2947); assay: LTEA_HepaRG_GSTM3: Life Technologies and Expression Analysis (LTEA) Assay for Glutathione S-transferase M3 (GSTM3) using HepaRG (AID 2283501); settings: actives raise or lower the signal; mRNA level, 48 h
Outline: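 qRT-PCR read-out of GSTM3 transcript, normalized to three housekeeping genes, from human HepaRG cells after 48 h chemical exposure. Eight-point half-log series, top 100 uM, 0.5% DMSO vehicle; gain or loss fitted relative to DMSO baseline.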

[6] = read-out: HGF (gene 3082); assay: LTEA_HepaRG_HGF: Life Technologies and Expression Analysis (LTEA) Assay for Hepatocyte Growth Facto (HGF) using HepaRG (AID 2283505); settings: actives raise or lower the signal; mRNA level, 48 h
Outline: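 HepaRG, 48 h dosing, 8-pt half-log series from 100 uM in 0.5% DMSO, duplicates. Readout: TaqMan qRT-PCR of HGF mRNA, housekeeping-normalized; bidirectional curve fit vs DMSO baseline.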

[7] = read-out: matrix metalloproteinase-10 (MMP10), MMP10 (gene 4319); assay: LTEA_HepaRG_MMP10: Life Technologies and Expression Analysis (LTEA) Assay for matrix metalloproteinase-10 (MMP10) using HepaRG (AID 2283517); settings: actives raise or lower the signal; mRNA level, 48 h
Outline: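 Transcript levels come from Fluidigm qRT-PCR normalized to three housekeeping genes, with curves fitted bidirectionally against 0.5% DMSO. Human HepaRG cells were dosed for 48 hours at concentrations up to 100 uM.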

[8] = BSK_SAg_Proliferation: Cell Proliferation Assessment in the BioMAP Diversity Plus: SAg Assay (AID 2283095); settings: primary human HUVEC with PBMC;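 also: relative cell number as total protein by SRB absorbance in sub-confluent culture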
Outline: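 HUVEC/PBMC co-culture, 96-well. TCA-fixed (10%), 0.1% SRB stain, A560 at 96 h. Protein content used as viability readout; bidirectional fitting vs DMSO control.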

[9] = Tanguay_ZF_120hpf_SWIM_legacy: (Legacy) Oregon State University Tanguay Lab 120 Hour Post-fertilization zebrafish Assay for Swim Bladder Malformation (AID 2283654; active = hit-call score of the fitted dose curve at least 0.9, where 1 is the maximum;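 also: swim bladder malformation in each larva scored yes or no under brightfield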)
Outline: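 Tropical 5D embryos dechorionated at 4 hpf; 1 embryo/well from 6 hpf; static, sealed, dark exposure at 28C until 120 hpf; final DMSO 0.64%; 5uM trimethyltin chloride positive control; swim bladder defect recorded yes/no; dead embryos not scored.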

[10] = BSK_SAg_SRB: Viability Assessment in the BioMAP Diversity Plus: SAg Assay (AID 2283096); settings: primary human HUVEC with PBMC;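 also: cells read one day after compound addition; hits may be either gain or loss of signal compared with DMSO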
Outline: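 Compounds were added to a human vascular co-culture of umbilical vein endothelium and PBMC. After 24 h, parallel cultures were fixed with 10% TCA, stained with 0.1% sulforhodamine B and read at 560 nm. Gain or loss of signal was fitted relative to DMSO.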

[11] = read-out: Macrophage colony-stimulating factor (MCSF), CSF1 (gene 1435); assay: BSK_LPS_MCSF: BioMAP Diversity Plus: LPS Assay for Macrophage colony-stimulating factor (MCSF) Biomarker Activity (AID 2283083); settings: actives raise or lower the signal; primary human HUVEC with PBMC
Outline: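 HUVEC + PBMC co-culture (human primary), 24 h post-dose; M-CSF by ELISA; gain/loss of signal fitted bidirectionally vs DMSO baseline.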

[12] = read-out: Cytochrome P450 3A4 (Homo sapiens) (UniProt P08684); assay: LTEA_HepaRG_CYP3A4: Life Technologies and Expression Analysis (LTEA) Assay for CYP3A4 using HepaRG (AID 2283487); settings: actives raise or lower the signal; mRNA level, 48 h
Outline: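 In a human hepatic line (HepaRG), duplicate wells were treated 48 h with up to 100 uM chemical in half-log dilutions. Endpoint: CYP3A4 mRNA induction or loss relative to 0.5% DMSO vehicle, by qRT-PCR.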

[13] = target: Nucleoli Translocation, AR (gene 367) (UniProt P10275); assay: UPITT_HCI_U2OS_AR_TIF2_Nucleoli_Antagonist: University of Pittsburgh U2OS Androgen Receptor-Transcriptional Intermediary Factor 2 (AR-TIF2) Antagonism High Content Imaging Assay for Nucleoli Translocation (AID 2283997; active = hit-call score of the fitted dose curve at least 0.9, where 1 is the maximum)
Outline: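 Compounds are added at 20 uM final concentration in 0.2% DMSO to U2OS cells carrying AR-RFP and TIF2-GFP fusions. Nucleolar AR-RFP fluorescence is then quantified by automated imaging. Antagonism is fitted positively against DHT baseline.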

[14] = read-out: Interleukin-8 (IL8), CXCL8 (gene 3576); assay: BSK_LPS_IL8: BioMAP Diversity Plus: LPS Assay for Interleukin-8 (IL8) Biomarker Activity (AID 2283078); settings: actives raise or lower the signal; primary human HUVEC with PBMC
Outline: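 HUVEC + PBMC co-culture, LPS-activated; test chemicals dosed, IL-8 read by ELISA at 24 h. Bidirectional curve fit vs DMSO baseline (gain or loss of signal).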

[15] = read-out: E-selectin (Homo sapiens) (UniProt P16581); assay: BSK_SAg_Eselectin: BioMAP Diversity Plus: SAg Assay for Eselectin Biomarker Activity (AID 2283091); settings: actives raise or lower the signal; primary human HUVEC with PBMC
Outline: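 E-selectin ELISA readout at 24 h post-dosing in human umbilical vein endothelial cell/PBMC co-culture; gain or loss of signal fitted relative to DMSO baseline.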

[16] = target: Estrogen receptor beta (Homo sapiens) (UniProt Q92731); assay: OT_ER_ERbERb_0480: Odyssey Thera (OT) 8-hour HEK293T Protein-Complementation Assay for Estrogen Receptor-beta/-beta Homodimer (AID 2283357; active = hit-call score of the fitted dose curve at least 0.9, where 1 is the maximum;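 also: active means signal gain over DMSO baseline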)
Outline: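 Homodimerization of ER-beta LBD measured by protein-fragment complementation in HEK293T; 8 h dosing; fixed, Draq5 counterstain; fluorescence intensity gain over DMSO baseline, positive fitting direction; laser scanning cytometry.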

[17] = target: Estrogen receptor beta (Homo sapiens) (UniProt Q92731); assay: OT_ER_ERbERb_1440: Odyssey Thera (OT) 24-hour HEK293T Protein-Complementation Assay for Estrogen Receptor-beta/-beta Homodimer (AID 2283380; active = hit-call score of the fitted dose curve at least 0.9, where 1 is the maximum;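 also: scored as signal increase over DMSO baseline for both agonists and antagonists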)
Outline: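 HEK293T cells stably expressing ER beta LBD (aa 310-547) homodimer fragment-complementation reporter, dosed 24 h. Cells formaldehyde-fixed, Draq5-stained; gain in nuclear (agonist) or nuclear plus cytoplasmic (antagonist) fluorescence versus DMSO read by laser scanning cytometry.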

[18] = read-out: ABC Transporter (ABCC3), ABCC3 (gene 8714); assay: LTEA_HepaRG_ABCC3: Life Technologies and Expression Analysis (LTEA) Assay for ABC Transporter (ABCC3) using HepaRG (AID 2283462); settings: actives raise or lower the signal; mRNA level, 48 h
Outline: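 qRT-PCR read-out of ABCC3 transcript, normalized to three housekeeping genes (ACTB, GAPDH, POLR2A), after 48 h chemical exposure of human HepaRG cells. Eight half-log concentrations, highest 100 uM, in 0.5% DMSO; gain or loss fitted relative to DMSO baseline.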

[19] = read-out: DNA damage-inducible transcript 3 (DDIT3), DDIT3 (gene 1649); assay: LTEA_HepaRG_DDIT3: Life Technologies and Expression Analysis (LTEA) Assay for DNA damage-inducible transcript 3 (DDIT3) using HepaRG (AID 2283488); settings: actives raise or lower the signal; mRNA level, 48 h
Outline: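 qRT-PCR readout (Fluidigm TaqMan), housekeeping-normalized to ACTB, GAPDH, POLR2A. HepaRG cells, 48 h exposure, 8-point half-log series from 100 uM in 0.5% DMSO, duplicates. Gain or loss of signal fitted against DMSO baseline.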

[20] = tested on: turtle Estrogen Receptor (ESR1), gene 101933533; assay: ATG_trERa_XSP1: Attagene TRANS-FACTORIAL Multi-Species (XSP1) HepG2 Assay for turtle Estrogen Receptor (ESR1) (AID 2283781; active = hit-call score of the fitted dose curve at least 0.9, where 1 is the maximum)
Outline: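 Transfect HepG2 with reporter units → dose chemical 24 h (medium has 3 nM 6-alpha-fluorotestosterone) → isolate RNA, RT-PCR → FAM primer extension, HpaI digest → capillary electrophoresis; gain of signal vs DMSO.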

Fc1ccc(Oc2ccnc3cc(Cl)cc(Cl)c23)cc1
AC50 [1]: active: 29.3 µM
AC50 [2]: active: 15.7 µM
outcome [3]: inactive

CCOP(=O)(SC(C)CC)N1CCSC1=O (stereo not given)
outcome [4]: inactive
outcome [5]: inactive
outcome [6]: inactive
outcome [7]: inactive

CN(C)C(=S)SSC(=S)N(C)C
AC50 [8]: active: 0.264 µM
outcome [9]: inactive

CC1(C)[C@H](C(=O)O[C@H](C#N)c2cccc(Oc3ccccc3)c2)[C@@H]1C=C(Br)Br
outcome [10]: inactive

CCCC1COC(Cn2cncn2)(c2ccc(Cl)cc2Cl)O1 (stereo not given)
AC50 [11]: active: 21.5 µM
AC50 [12]: active: 76 µM
AC50 [13]: active: 50 µM

CC(C)(O)C(=O)Nc1ccc([N+](=O)[O-])c(C(F)(F)F)c1
outcome [14]: inactive
outcome [15]: inactive
outcome [16]: inactive
outcome [17]: inactive
outcome [18]: inactive
outcome [19]: inactive
outcome [20]: inactive
